Source: publication PMC10897169
No constants are given. Whether binding was seen depends on the method and setting. In cells and extracts the contact can be indirect. Some results given as binding are weak or reduced against the parent protein; the word gives no strength.

By UniProt entry, the sequences of proteins in these tests, tags left out.
UniProt P01106: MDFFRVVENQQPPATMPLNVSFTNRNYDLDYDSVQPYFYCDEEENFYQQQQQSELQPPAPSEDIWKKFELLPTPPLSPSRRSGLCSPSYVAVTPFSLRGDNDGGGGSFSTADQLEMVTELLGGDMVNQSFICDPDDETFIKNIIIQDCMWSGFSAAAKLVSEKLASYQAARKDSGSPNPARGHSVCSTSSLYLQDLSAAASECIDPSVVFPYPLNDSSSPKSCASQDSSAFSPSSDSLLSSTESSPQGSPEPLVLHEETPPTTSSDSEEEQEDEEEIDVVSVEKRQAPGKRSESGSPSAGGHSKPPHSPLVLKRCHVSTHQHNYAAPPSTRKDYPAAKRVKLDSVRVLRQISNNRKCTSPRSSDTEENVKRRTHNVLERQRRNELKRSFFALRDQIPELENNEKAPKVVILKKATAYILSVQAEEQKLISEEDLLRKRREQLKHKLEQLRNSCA
UniProt Q9H583: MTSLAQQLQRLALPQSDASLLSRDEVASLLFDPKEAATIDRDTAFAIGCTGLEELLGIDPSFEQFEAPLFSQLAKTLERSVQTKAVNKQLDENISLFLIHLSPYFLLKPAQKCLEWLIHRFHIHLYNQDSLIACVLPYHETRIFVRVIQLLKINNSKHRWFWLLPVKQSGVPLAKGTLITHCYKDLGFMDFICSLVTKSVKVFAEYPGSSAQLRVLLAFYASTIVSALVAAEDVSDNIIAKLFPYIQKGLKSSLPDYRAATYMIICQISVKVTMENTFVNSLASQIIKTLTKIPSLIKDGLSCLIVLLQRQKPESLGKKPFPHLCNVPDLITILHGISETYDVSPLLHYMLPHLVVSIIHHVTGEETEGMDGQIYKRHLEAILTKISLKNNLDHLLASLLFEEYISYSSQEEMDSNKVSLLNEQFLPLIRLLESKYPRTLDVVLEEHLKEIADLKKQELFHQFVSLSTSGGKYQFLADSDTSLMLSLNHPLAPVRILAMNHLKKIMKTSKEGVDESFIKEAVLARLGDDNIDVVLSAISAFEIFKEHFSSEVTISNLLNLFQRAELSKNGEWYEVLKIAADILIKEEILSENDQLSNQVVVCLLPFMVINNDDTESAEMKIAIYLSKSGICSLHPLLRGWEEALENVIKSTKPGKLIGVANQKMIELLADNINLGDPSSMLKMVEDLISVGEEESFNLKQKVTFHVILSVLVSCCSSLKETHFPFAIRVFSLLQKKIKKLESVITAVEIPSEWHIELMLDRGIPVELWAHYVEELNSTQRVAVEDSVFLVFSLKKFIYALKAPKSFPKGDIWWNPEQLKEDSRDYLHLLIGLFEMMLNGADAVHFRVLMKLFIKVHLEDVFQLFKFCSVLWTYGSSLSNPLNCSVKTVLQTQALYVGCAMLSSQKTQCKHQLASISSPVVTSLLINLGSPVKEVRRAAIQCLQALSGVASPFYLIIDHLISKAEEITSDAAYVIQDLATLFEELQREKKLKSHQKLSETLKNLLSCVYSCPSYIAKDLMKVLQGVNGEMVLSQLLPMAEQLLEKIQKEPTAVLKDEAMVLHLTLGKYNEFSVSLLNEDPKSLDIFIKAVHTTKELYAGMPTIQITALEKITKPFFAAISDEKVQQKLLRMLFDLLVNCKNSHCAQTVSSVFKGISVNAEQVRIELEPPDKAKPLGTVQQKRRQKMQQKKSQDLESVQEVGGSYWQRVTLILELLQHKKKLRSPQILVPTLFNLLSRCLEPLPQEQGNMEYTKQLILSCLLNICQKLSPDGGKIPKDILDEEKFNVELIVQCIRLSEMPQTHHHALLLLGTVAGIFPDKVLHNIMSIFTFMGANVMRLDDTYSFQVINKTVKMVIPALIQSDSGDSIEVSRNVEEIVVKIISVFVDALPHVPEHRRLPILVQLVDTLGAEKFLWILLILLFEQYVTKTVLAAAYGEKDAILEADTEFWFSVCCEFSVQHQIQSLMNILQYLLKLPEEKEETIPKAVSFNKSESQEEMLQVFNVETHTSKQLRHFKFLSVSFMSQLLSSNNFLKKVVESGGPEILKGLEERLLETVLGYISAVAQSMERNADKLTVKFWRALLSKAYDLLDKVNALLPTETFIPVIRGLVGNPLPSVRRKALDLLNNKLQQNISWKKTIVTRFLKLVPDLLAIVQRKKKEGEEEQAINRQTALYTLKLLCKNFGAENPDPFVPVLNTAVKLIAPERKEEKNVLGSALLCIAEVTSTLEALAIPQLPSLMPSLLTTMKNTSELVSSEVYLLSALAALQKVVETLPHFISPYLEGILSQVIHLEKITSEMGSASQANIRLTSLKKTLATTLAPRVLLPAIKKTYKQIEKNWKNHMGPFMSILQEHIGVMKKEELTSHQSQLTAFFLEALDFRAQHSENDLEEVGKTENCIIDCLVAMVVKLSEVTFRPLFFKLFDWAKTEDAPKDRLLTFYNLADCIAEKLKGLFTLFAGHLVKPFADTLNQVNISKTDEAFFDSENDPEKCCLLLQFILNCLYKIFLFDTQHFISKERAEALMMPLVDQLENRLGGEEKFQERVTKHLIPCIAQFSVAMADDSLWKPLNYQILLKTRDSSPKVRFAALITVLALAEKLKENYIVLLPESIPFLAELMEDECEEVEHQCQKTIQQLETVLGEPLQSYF

Experiments:
HA-tagged MYC (human) = HA-tagged MYC (human) (UniProt P01106); test: co-IP; lysates of 293T cells co-expressing HA-MYC and Flag-HEATR1, 24 h after transfection; precipitated with anti-HA (3F10) on Dynabeads Protein G, 1 h, 4 °C; lysis buffer 20 mM Tris-HCl, 150 mM NaCl, 1 mM EDTA, 1% NP-40, 0.5% sodium deoxycholate; 4 washes; western blot
[1] = biological target: Flag-tagged HEATR1 (human) (UniProt Q9H583); test: co-IP; lysates of 293T cells co-expressing HA-MYC and Flag-HEATR1, 24 h after transfection; precipitated with anti-Flag M2 on Dynabeads Protein G, 1 h, 4 °C; lysis buffer 20 mM Tris-HCl, 150 mM NaCl, 1 mM EDTA, 1% NP-40, 0.5% sodium deoxycholate; 4 washes; western blot

Flag-tagged HEATR1 (from UniProt Q9H583 1-2144)
binding (HA-tagged MYC (human)): binds

HA-tagged MYC (from UniProt P01106 1-454)
binding [1]: binds
